The supplement of paper PMC11542785
Structures can show the parent of a compound that is named as a salt. The list shows a part of the results. Repeats are few or missing, and single values can be far off.

Tested on: Drosophila melanogaster DPAGT1 (Alg7) RNAi eye model
Assay: eye size Z-score vs DMSO-treated DPAGT1 model flies; higher = larger eye (suppression of DPAGT1 phenotype)
Conditions: 5 uM

| Structure (SMILES) | eye size Z-score |
| --- | --- |
| COCC1=C(C(=O)OC(C)OC(=O)OC(C)C)N2C(=O)[C@@H](NC(=O)/C(=N\OC)c3csc(N)n3)[C@H]2SC1 (stereo not given in full) [Cefpodoxime proxetil] | 0.35 |
| CCN(CC)CCOC(=O)C(c1ccccc1)C1CCCCC1 (stereo not given) [Drofenine hydrochloride] | 0.59 |
| COc1cc(Cc2cnc(N)nc2N)cc(OC)c1OC [Trimethoprim] | 0.4 |
| CC(C(=O)O)c1ccc(N2CC=CC2)c(Cl)c1 (stereo not given) [Pirprofen] | 0.06 |
| O=C(CCCN1CCC(O)(c2ccc(Br)cc2)CC1)c1ccc(F)cc1 [Bromperidol] | -0.35 |
| CO[C@@]1(NC(=O)Cc2cccs2)C(=O)N2C(C(=O)O)=C(COC(N)=O)CS[C@@H]21 [Cefoxitin sodium salt] | -1.13 |
| CC(=O)c1ccc2c(c1)N(CCCN1CCC(CCO)CC1)c1ccccc1S2 [Piperacetazine] | -0.5 |
| COC(=O)C1=C(C)NC(C)=C(C(=O)O[C@H]2CCN(Cc3ccccc3)C2)[C@H]1c1cccc([N+](=O)[O-])c1 [Barnidipine Hydrochloride] | 0.26 |
| C=CCOc1ccc(CC(=O)O)cc1Cl [Alclofenac] | -0.48 |
| COc1cc2c(cc1OC)C(=O)C(CC1CCN(Cc3ccccc3)CC1)C2 (stereo not given) [Donepezil hydrochloride] | -0.06 |
| CCCCC(CC)CN1CN(CC(CC)CCCC)CC(C)(N)C1 (stereo not given) [Hexetidine] | -0.63 |
| CN(C)c1ccc2nc3ccc(=[N+](C)C)cc-3sc2c1 [Methylene blue] | 0.53 |
| COc1ccc(C2C(=O)c3ccccc3C2=O)cc1 [Anisindione] | 1.29 |
| Cc1cccc(C)c1NC(=O)C1CCCCN1C (stereo not given) [Mepivacaine hydrochloride] | 0.17 |
| CN1C(C(=O)Nc2ccccn2)=C(O)c2sccc2S1(=O)=O [Tenoxicam] | 1.1 |
| Cc1ncc([N+](=O)[O-])n1CC(O)CCl (stereo not given) [Ornidazole] | 0.71 |
| C[C@]12CC[C@H]3C(=CCc4cc(O)ccc43)[C@@H]1CCC2=O [Equilin] | -0.48 |
| C=C[C@H]1CN2CC[C@H]1C[C@@H]2[C@@H](O)c1ccnc2ccc(OC)cc12 [Quinidine hydrochloride monohydrate] | -1.29 |
| Cn1c(=O)c2[nH]cnc2n(C)c1=O [Aminophylline] | -0.03 |
| Cc1ccnc2c1NC(=O)c1cccnc1N2C1CC1 [Nevirapine] | 0.04 |
| CN(C)CCC=C1c2ccccc2CCc2ccccc21 [Amitryptiline hydrochloride] | -0.15 |
| Cc1[nH]c(=O)c(C#N)cc1-c1ccncc1 [Milrinone] | 0.56 |
| COc1ccc(-c2cc(=O)c3c(O)cc(O[C@@H]4O[C@H](CO[C@@H]5O[C@@H](C)[C@H](O)[C@@H](O)[C@H]5O)[C@@H](O)[C@H](O)[C@H]4O)cc3o2)cc1O [Diosmin] | 0.36 |
| Cn1c(=O)cc(N2CCC[C@@H](N)C2)n(Cc2ccccc2C#N)c1=O [Alogliptin benzoate] | -0.13 |
| CCCCCCCN(CC)CCCC(O)c1ccc(NS(C)(=O)=O)cc1 (stereo not given) [Ibutilide fumarate] | 0.64 |

| Structure (SMILES) | eye size Z-score |
| --- | --- |
| c1ccc2[nH]c(-c3cscn3)nc2c1 [Tiabendazole] | 0.54 |
| OC[C@H]1O[C@@H](n2cnc3cncnc32)[C@H](O)[C@@H]1O [Nebularine] | -0.4 |
| CC1CS(=O)(=O)CCN1/N=C/c1ccc([N+](=O)[O-])o1 (stereo not given) [Nifurtimox] | -0.95 |
| COc1ccc(C(=O)c2ccc(C)cc2)c(O)c1 [Mexenone] | -0.56 |
| CN1CC2c3ccccc3Oc3ccc(Cl)cc3C2C1 (stereo not given) [Asenapine maleate] | -0.56 |
| COc1cc(C(=O)NC2CCCNC2)cc(OC)c1OC (stereo not given) [Troxipide] | 0.81 |
| C[C@]12CC[C@@H]3c4ccc(O)cc4CC[C@H]3[C@@H]1CCC2=O [Estrone] | -0.44 |
| CN(C)[C@@H]1C(O)=C(C(N)=O)C(=O)[C@@]2(O)C(O)=C3C(=O)c4c(O)ccc(Cl)c4[C@@](C)(O)[C@H]3C[C@@H]12 [Chlortetracycline hydrochloride] | 1.02 |
| CC(=O)N(CC(C)C(=O)O)c1c(I)cc(I)c(N)c1I (stereo not given) [Iocetamic acid] | -0.98 |
| O=C(O)CCC(=O)Nc1ccc(S(=O)(=O)Nc2nccs2)cc1 [Succinylsulfathiazole] | 0.53 |
| COc1cnc(NS(=O)(=O)c2ccc(N)cc2)nc1 [Sulfameter] | 0.15 |
| Cc1cccc(CN2CCN(C(c3ccccc3)c3ccc(Cl)cc3)CC2)c1 (stereo not given) [Meclozine dihydrochloride] | -0.06 |
| CCCCC(C)(O)C/C=C/[C@H]1[C@H](O)CC(=O)[C@@H]1CCCCCCC(=O)OC (mixture of isomers) [Misoprostol] | -1.2 |
| CNCCC(Oc1ccccc1OC)c1ccccc1 (stereo not given) [Nisoxetine hydrochloride] | -1.09 |
| COc1ccccc1O [Guaiacol] | 0.21 |
| CCOC(=O)C1=C[C@]2(CC)CCCN3CCc4c(n1c1ccccc41)[C@@H]32 [Vinpocetine] | 0.5 |
| COc1ccc2cc([C@@H](C)C(=O)O)ccc2c1 [(R) Naproxen sodium salt] | -0.18 |
| Nc1nc(=O)c2c([nH]1)NC[C@@H](CNc1ccc(C(=O)N[C@@H](CCC(=O)O)C(=O)O)cc1)N2C=O [Folinic acid calcium salt] | -0.54 |
| CC1(C)NC(=O)N(c2ccc([N+](=O)[O-])c(C(F)(F)F)c2)C1=O [Nilutamide] | 0.12 |
| CCCCC(CC)CNC(=N)NC(=N)NCCCCCCNC(=N)NC(=N)NCC(CC)CCCC (stereo not given) [Alexidine dihydrochloride] | 0.02 |
| COC(=O)[C@@H]1[C@H]2C[C@H]3c4[nH]c5ccccc5c4CCN3C[C@@H]2CC[C@@H]1O [Yohimbine hydrochloride] | 0.06 |
| O=C1CCc2cc(OCCCCc3nnnn3C3CCCCC3)ccc2N1 [Cilostazol] | -0.39 |
| CCS(=O)(=O)CCn1c([N+](=O)[O-])cnc1C [Tinidazole] | 0.1 |
| CCCCOc1cc(C(=O)NCCN(CC)CC)c2ccccc2n1 [Dibucaine] | 0.63 |
| O=P(O)(O)C(Cl)(Cl)P(=O)(O)O [Clodronate disodium] | 0.82 |

Not a retest: entries from further up.

| Structure (SMILES) | eye size Z-score |
| --- | --- |
| O=C1CCc2cc(OCCCCc3nnnn3C3CCCCC3)ccc2N1 [Cilostazol] | -0.39 |
| CCS(=O)(=O)CCn1c([N+](=O)[O-])cnc1C [Tinidazole] | 0.1 |
| CCCCOc1cc(C(=O)NCCN(CC)CC)c2ccccc2n1 [Dibucaine] | 0.63 |
